According to patent US20100041597A1, “PEPTIDES TARGETED TO PROTEIN KINASE C ISOFORMS AND USES THEREOF” (priority 2005, published 2010):
These are yes or no findings as the source states them, for the method shown. Some entries that bind do so weakly or less than the wild type.

By UniProt entry, the sequences of proteins in these tests, tags left out. Where a name states a change or a piece, a line headed by the entry shows the natural chain unless it says otherwise.
UniProt Q05655: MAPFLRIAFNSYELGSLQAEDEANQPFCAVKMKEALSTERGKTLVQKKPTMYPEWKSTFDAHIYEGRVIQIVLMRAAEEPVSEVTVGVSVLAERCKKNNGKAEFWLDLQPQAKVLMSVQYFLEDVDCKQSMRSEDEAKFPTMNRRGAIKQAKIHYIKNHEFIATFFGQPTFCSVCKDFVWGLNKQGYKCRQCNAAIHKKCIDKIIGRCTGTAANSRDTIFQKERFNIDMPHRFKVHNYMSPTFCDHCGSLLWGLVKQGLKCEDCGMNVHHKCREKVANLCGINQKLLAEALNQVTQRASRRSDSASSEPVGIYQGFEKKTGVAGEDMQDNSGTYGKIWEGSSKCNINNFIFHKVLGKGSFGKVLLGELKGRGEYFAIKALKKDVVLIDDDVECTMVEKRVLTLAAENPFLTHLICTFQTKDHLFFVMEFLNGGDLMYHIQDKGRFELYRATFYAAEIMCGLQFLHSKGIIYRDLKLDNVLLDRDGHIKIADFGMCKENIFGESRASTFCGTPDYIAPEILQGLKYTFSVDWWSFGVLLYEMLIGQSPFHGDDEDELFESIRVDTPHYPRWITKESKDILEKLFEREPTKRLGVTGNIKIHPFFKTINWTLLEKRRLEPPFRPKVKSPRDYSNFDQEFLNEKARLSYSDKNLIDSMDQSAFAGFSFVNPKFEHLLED
UniProt Q02156: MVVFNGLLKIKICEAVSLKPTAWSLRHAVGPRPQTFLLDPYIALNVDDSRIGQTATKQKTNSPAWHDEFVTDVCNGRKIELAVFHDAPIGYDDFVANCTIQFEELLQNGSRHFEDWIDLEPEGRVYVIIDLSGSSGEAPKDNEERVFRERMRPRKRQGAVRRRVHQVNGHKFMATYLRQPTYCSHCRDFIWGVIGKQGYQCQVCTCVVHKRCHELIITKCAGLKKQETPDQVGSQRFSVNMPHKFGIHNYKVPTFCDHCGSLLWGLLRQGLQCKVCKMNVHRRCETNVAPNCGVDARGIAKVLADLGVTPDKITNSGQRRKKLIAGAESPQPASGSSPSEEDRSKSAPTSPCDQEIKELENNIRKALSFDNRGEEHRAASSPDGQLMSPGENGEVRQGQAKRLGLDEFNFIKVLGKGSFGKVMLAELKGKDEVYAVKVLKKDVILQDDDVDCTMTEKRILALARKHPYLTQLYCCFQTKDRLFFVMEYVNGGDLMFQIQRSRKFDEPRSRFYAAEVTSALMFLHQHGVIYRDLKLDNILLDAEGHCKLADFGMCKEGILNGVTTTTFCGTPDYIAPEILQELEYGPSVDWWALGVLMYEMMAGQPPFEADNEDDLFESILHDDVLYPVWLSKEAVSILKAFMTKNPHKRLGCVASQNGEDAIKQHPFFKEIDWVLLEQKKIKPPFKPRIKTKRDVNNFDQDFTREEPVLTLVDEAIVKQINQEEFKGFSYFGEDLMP

Legend:
[1] = biological target: PKC-α (purified isoform) (Homo sapiens (Human)) (UniProt P17252); test: summary grade, purified isoform ELISA
[2] = biological target: PKC-βI (purified isoform) (Homo sapiens (Human)) (UniProt P05771); test: summary grade, purified isoform ELISA
[3] = biological target: PKC-α (purified isoform) (Homo sapiens (Human)) (UniProt P17252); test: competitive ELISA, purified isoforms
[4] = biological target: PKC-βII (endogenous, human cell extracts) (human) (UniProt P05771); test: summary grade, cell extract blot competition
[5] = biological target: T1, PKC-ζ (endogenous, human cell extracts) (human) (UniProt Q05513); test: summary grade, cell extract blot competition
T1 sequence (looked up): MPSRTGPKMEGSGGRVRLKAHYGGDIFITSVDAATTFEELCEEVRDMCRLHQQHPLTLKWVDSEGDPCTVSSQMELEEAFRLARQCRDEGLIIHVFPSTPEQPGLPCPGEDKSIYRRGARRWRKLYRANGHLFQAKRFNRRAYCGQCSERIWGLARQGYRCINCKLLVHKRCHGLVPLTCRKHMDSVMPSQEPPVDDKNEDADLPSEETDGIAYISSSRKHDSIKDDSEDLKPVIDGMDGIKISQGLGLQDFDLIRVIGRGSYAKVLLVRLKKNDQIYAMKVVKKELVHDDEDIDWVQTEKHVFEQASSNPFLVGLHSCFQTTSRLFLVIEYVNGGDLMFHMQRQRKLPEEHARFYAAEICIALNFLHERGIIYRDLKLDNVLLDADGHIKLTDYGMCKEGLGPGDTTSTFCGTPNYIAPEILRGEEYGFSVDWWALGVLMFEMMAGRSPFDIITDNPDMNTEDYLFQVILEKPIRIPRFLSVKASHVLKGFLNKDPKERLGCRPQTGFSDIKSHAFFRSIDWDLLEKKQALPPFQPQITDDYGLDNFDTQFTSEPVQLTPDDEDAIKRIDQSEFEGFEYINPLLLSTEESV

[6] = biological target: PKC-βII (endogenous, human cell extracts) (human) (UniProt P05771); test: Western blot competition Protocol B, IMR-32 extract
[7] = biological target: PKC-α (purified isoform) (Homo sapiens (Human)) (UniProt P17252); test: fluorescent antibody competitive binding assay, commercial isoforms; PRE 20× concentration
[8] = biological target: PKC-α (purified isoform) (Homo sapiens (Human)) (UniProt P17252); test: competitive binding assay on purified isoforms: PRE 4 at 20X against the fluorescent anti-PKC-alpha antibody; less antibody signal = peptide bound
[9] = biological target: PKC-βII (endogenous, human cell extracts) (human) (UniProt P05771); test: Western-blot competition on cell extracts against the anti-PKC-βII primary antibody, catalytic fragment band; peptide at 10X and 20X the antibody concentration; band densitometry (lower band = peptide bound)
[10] = biological target: PKC-δ (purified isoform) (Homo sapiens (Human)) (UniProt Q05655); test: summary grade, purified isoform ELISA
[11] = biological target: PKC-ε (purified isoform) (Homo sapiens (Human)) (UniProt Q02156); test: summary grade, purified isoform ELISA
[12] = biological target: PKC-βI (purified isoform) (Homo sapiens (Human)) (UniProt P05771); test: competitive ELISA, purified isoforms
[13] = biological target: PKC-δ (purified isoform) (Homo sapiens (Human)) (UniProt Q05655); test: competitive ELISA, purified isoforms
[14] = biological target: PKC-ε (purified isoform) (Homo sapiens (Human)) (UniProt Q02156); test: competitive ELISA, purified isoforms
[15] = biological target: PKC-ε (endogenous, human cell extracts) (human) (UniProt Q02156); test: summary grade, cell extract blot competition
[16] = biological target: PKC-β (endogenous, IMR-32 cell lysate) (human) (UniProt P05771); test: Western blot competition Protocol B, IMR-32 extract
[17] = biological target: PKC-ε (endogenous, human cell extracts) (human) (UniProt Q02156); test: as above
[18] = biological target: PKC-ε (endogenous, human cell extracts) (human) (UniProt Q02156); test: Western-blot competition on cell extracts against the anti-PKC-ε primary antibody, band 2; peptide at 10X and 20X the antibody concentration; band densitometry (lower band = peptide bound)
[19] = biological target: PKC-β (endogenous, IMR-32 cell lysate) (human) (UniProt P05771); test: Western blot competition Protocol A, IMR-32 lysate
[20] = biological target: PKC-βII (purified isoform) (Homo sapiens (Human)) (UniProt P05771); test: summary grade, purified isoform ELISA

KDAQNLIGISI (N-terminal acetyl (Ac); C-terminal amide (NH2)) [PRE 4]
binding [1]: binds
binding [2]: binds
binding [3]: binds
binding [4]: binds
binding [5]: no binding (tested: 20X)
binding [6]: binds
binding [7]: binds
binding [8]: binds
binding [9]: binds

AKGIQEVKGGDAQNLIGISI (N-terminal acetyl (Ac); C-terminal amide (NH2)) [PRE 3]
binding [1]: binds
binding [2]: binds
binding [10]: binds
binding [11]: binds
binding [3]: binds
binding [12]: binds
binding [13]: binds
binding [14]: binds
binding [15]: binds
binding [16]: binds
binding [17]: binds
binding [18]: binds

KDAQNLIGISL (C-terminal amide (NH2)) [PRE 2]
binding [19]: binds
binding [16]: binds
binding [17]: binds

RRKKGGKDFVVKR [PRE 1]
binding [2]: binds
binding [10]: binds
binding [12]: binds
binding [13]: binds
binding [19]: binds

RDAQNLIGISI (N-terminal acetyl (Ac); C-terminal amide (NH2)) [PRE 11]
binding [1]: binds
binding [10]: binds
binding [13]: binds

KDANQLIGISI (N-terminal acetyl (Ac); C-terminal amide (NH2)) [PRE 6]
binding [2]: binds
binding [10]: binds

ISIGILNQADK (N-terminal acetyl (Ac); C-terminal amide (NH2)) [PRE 10]
binding [20]: binds
